# Values from PubChem BioAssay AID1224828 (NIAID, 2016)
# Test: 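Regulators linking TLR4 signalling to p65 nuclear translocation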 (primary screen)
# Cell system: mouse RAW264.7 G9 macrophage reporter cells (GFP-p65, Tnf promoter-mCherry)
# Knock-down reagent: siRNA pool against mouse genes, 100 nM
# Timing: 2 days siRNA transfection, then 40 min LPS before fixation
# Conditions: LPS (Salmonella minnesota R595) at 10 ng/ml
# Read-out: 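Imaged p65 nuclear translocation ratio, normalised to the plate median, converted to robust z-scores and averaged across two replicates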
# Direction: p65 translocation robust z-score: higher = more nuclear NF-kappaB p65 after LPS than the plate median; nuclear/cytoplasmic p65 ratio: higher = more nuclear NF-kappaB p65
# Hit rule: 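Active if robust z is above 3.3 (negative regulators) or below -1.56, the Tlr4 control median (positive regulators); activity score 50 or more; control wells not called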
# Calls: active = hit (p65 shift raised or lowered); inactive = no clear change
# The whole screen tested about 17,000 reagents; this is a random part of them. Of all reagents, 762 (4.5%) got an active call. 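Active calls include both raised and lowered p65 entry, mostly lowered; wells with fewer than 50 cells lack a z-score.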 The raw values are shown without normalisation.
target,p65 translocation robust z-score,"nuclear/cytoplasmic p65 ratio, rep 1","nuclear/cytoplasmic p65 ratio, rep 2",low cell count flag,outcome
Pcyt1a,-0.45,1.23,1.19,enough cells to score,inactive
Vmn1r-ps8,2.61,1.69,1.55,enough cells to score,inactive
Acp3,-0.29,1.59,1.56,enough cells to score,inactive
Rab27b,-0.5,1.46,1.58,enough cells to score,inactive
Pld4,0.09,1.62,1.69,enough cells to score,inactive
Il17re,,1.24,1.39,fewer than 50 cells per well; well left out of scoring,inactive
Ifna16,-1.49,1.22,1.22,enough cells to score,inactive
Mdga2,1.85,2.21,1.64,enough cells to score,inactive
Tmem209,0.42,1.5,1.47,enough cells to score,inactive
Zdhhc16,-1.45,1.2,1.08,enough cells to score,inactive
Cdc42,0.31,1.47,1.42,enough cells to score,inactive
Bpifb1,,1.28,1.08,fewer than 50 cells per well; well left out of scoring,inactive
Mapk8ip2,-0.88,1.57,1.27,enough cells to score,inactive
Or9i16,0.25,1.67,1.44,enough cells to score,inactive
Tube1,1.08,1.72,1.63,enough cells to score,inactive
Grm5,0.77,1.5,1.81,enough cells to score,inactive
Or55b10,,1.32,0,fewer than 50 cells per well; well left out of scoring,inactive
Coch,-0.15,1.46,1.36,enough cells to score,inactive
Vmn1r-ps103,0.16,1.39,1.26,enough cells to score,inactive
Or5h24-ps1,0.54,1.69,1.25,enough cells to score,inactive
Hey2,-0.15,1.43,1.34,enough cells to score,inactive
Hdgf,0.58,1.56,1.41,enough cells to score,inactive
Nudt6,0.03,1.71,1.55,enough cells to score,inactive
Trpm5,-0.2,1.47,1.49,enough cells to score,inactive
Krt10,0.09,1.47,1.41,enough cells to score,inactive
Gtpbp1,0.32,1.57,1.7,enough cells to score,inactive
Rab11fip3,-0.96,1.41,1.65,enough cells to score,inactive
Ythdc1,0.43,1.4,1.63,enough cells to score,inactive

7 of these entries, reformatted:
Mapk8ip2
- p65 translocation robust z-score: -0.88
- nuclear/cytoplasmic p65 ratio, rep 1: 1.57
- nuclear/cytoplasmic p65 ratio, rep 2: 1.27
- low cell count flag: enough cells to score
- outcome: inactive

Or9i16
- p65 translocation robust z-score: 0.25
- nuclear/cytoplasmic p65 ratio, rep 1: 1.67
- nuclear/cytoplasmic p65 ratio, rep 2: 1.44
- low cell count flag: enough cells to score
- outcome: inactive

Tube1
- p65 translocation robust z-score: 1.08
- nuclear/cytoplasmic p65 ratio, rep 1: 1.72
- nuclear/cytoplasmic p65 ratio, rep 2: 1.63
- low cell count flag: enough cells to score
- outcome: inactive

Grm5
- p65 translocation robust z-score: 0.77
- nuclear/cytoplasmic p65 ratio, rep 1: 1.5
- nuclear/cytoplasmic p65 ratio, rep 2: 1.81
- low cell count flag: enough cells to score
- outcome: inactive

Or55b10
- nuclear/cytoplasmic p65 ratio, rep 1: 1.32
- nuclear/cytoplasmic p65 ratio, rep 2: 0
- low cell count flag: fewer than 50 cells per well; well left out of scoring
- outcome: inactive

Coch
- p65 translocation robust z-score: -0.15
- nuclear/cytoplasmic p65 ratio, rep 1: 1.46
- nuclear/cytoplasmic p65 ratio, rep 2: 1.36
- low cell count flag: enough cells to score
- outcome: inactive

Vmn1r-ps103
- p65 translocation robust z-score: 0.16
- nuclear/cytoplasmic p65 ratio, rep 1: 1.39
- nuclear/cytoplasmic p65 ratio, rep 2: 1.26
- low cell count flag: enough cells to score
- outcome: inactive

The list goes on:
target,p65 translocation robust z-score,"nuclear/cytoplasmic p65 ratio, rep 1","nuclear/cytoplasmic p65 ratio, rep 2",low cell count flag,outcome
Vwa1,0.82,1.32,1.45,enough cells to score,inactive
Trim39,,1.4,1.13,fewer than 50 cells per well; well left out of scoring,inactive
Paf1,,1.27,1.08,fewer than 50 cells per well; well left out of scoring,inactive
Hp1bp3,-0.15,1.55,1.54,enough cells to score,inactive
Kctd19,,1.2,1.36,fewer than 50 cells per well; well left out of scoring,inactive
Slc44a3,1.21,1.76,2.05,enough cells to score,inactive
Or10a2,-0.59,1.34,1.22,enough cells to score,inactive
Phlpp1,0.46,1.59,1.44,enough cells to score,inactive
Sfxn2,,1.29,1.14,fewer than 50 cells per well; well left out of scoring,inactive
Zfp711,,1.33,1.52,fewer than 50 cells per well; well left out of scoring,inactive
Ostm1,,1.35,1.07,fewer than 50 cells per well; well left out of scoring,inactive
Tbx5,0.97,1.63,1.69,enough cells to score,inactive
Atp1b1,-2.18,1.2,1.29,enough cells to score,active
Ran,,1.35,0.954,fewer than 50 cells per well; well left out of scoring,inactive
Kdg4,-0.23,1.76,1.55,enough cells to score,inactive
Plaat3,-1.85,1.32,1.32,enough cells to score,active
Amigo3,0.77,1.82,1.7,enough cells to score,inactive
Ptpn3,-1.69,1.19,1.25,enough cells to score,active
Nlrp5,-1.72,1.5,1.39,enough cells to score,active
Dnajc5,2.4,1.79,1.57,enough cells to score,inactive
Gsap,-0.32,1.27,1.55,enough cells to score,inactive
Slc45a1,,1.52,1.42,fewer than 50 cells per well; well left out of scoring,inactive
Prss30,,1.43,1.46,fewer than 50 cells per well; well left out of scoring,inactive
Ubr7,2.08,1.65,1.71,enough cells to score,inactive
Cdc20,-0.05,1.43,1.4,enough cells to score,inactive
Tnfrsf18,0.31,1.56,1.57,enough cells to score,inactive
Mrgprf,1.36,1.67,1.82,enough cells to score,inactive
Hcar2,-0.92,1.41,1.41,enough cells to score,inactive
Zfp661,0.08,,1.47,enough cells to score,inactive
Ctla4,-0.75,1.36,1.29,enough cells to score,inactive
Rsph3a,,1.1,1.2,fewer than 50 cells per well; well left out of scoring,inactive
Mus81,0.81,1.89,1.73,enough cells to score,inactive
Tmx3,-0.57,1.31,1.44,enough cells to score,inactive
Vmn1r202,0.81,1.62,1.32,enough cells to score,inactive
Mlkl,-0.76,1.45,1.29,enough cells to score,inactive
Gnb3,1.47,1.74,1.77,enough cells to score,inactive
Rasgrf1,-0.65,1.43,1.42,enough cells to score,inactive
Htr7,-0.15,1.47,1.58,enough cells to score,inactive
Chrna9,-1,1.33,1.25,enough cells to score,inactive
Dand5,1.35,1.63,1.55,enough cells to score,inactive
Padi2,,1.47,1.31,fewer than 50 cells per well; well left out of scoring,inactive
Ppp1r42,-0.66,1.31,1.22,enough cells to score,inactive
Keg1,1.62,1.82,1.62,enough cells to score,inactive
Mdm2,,3.2,1.24,fewer than 50 cells per well; well left out of scoring,inactive
Obi1,0.47,1.31,1.52,enough cells to score,inactive
Epha8,0.16,1.7,1.41,enough cells to score,inactive
Mmp15,0.4,1.48,1.41,enough cells to score,inactive
